The target of assay [1] is 3HA-HBx (hepatitis B virus) (UniProt P03165). Description: co-IP; protein extracts of transfected cells immunoprecipitated with primary antibody or IgG at 4 °C overnight, protein A/G magnetic beads, washed 4 times, Western blot.
Another assay concerns the target 3HA-TARDBP (UniProt Q13148). The assay is described as above.
The target in the next assay is 3Flag-STAU1 (UniProt O95793). The description is as above.
The target in the next assay is C10-STAU1 (UniProt O95793). As to the kind of experiment: split reporter; tripartite Nanoluc luciferase: C10-tagged and N8-tagged proteins co-transfected with a plasmid expressing Nano1-7 into HepG2 cells; luciferase activity measured 48 h post-transfection.
Assay [2] has as its target 3HA-HBx (hepatitis B virus) (UniProt P03165). Description: co-IP; IP assays, data not shown; HBx with 20S proteasome subunits, with or without STAU1.
For assay [3], the target named is TARDBP recombinant protein (UniProt Q13148). Description: native gel or EMSA; both purified.

Chains of the proteins cited; added tags and fusions are not shown.
UniProt Q13148: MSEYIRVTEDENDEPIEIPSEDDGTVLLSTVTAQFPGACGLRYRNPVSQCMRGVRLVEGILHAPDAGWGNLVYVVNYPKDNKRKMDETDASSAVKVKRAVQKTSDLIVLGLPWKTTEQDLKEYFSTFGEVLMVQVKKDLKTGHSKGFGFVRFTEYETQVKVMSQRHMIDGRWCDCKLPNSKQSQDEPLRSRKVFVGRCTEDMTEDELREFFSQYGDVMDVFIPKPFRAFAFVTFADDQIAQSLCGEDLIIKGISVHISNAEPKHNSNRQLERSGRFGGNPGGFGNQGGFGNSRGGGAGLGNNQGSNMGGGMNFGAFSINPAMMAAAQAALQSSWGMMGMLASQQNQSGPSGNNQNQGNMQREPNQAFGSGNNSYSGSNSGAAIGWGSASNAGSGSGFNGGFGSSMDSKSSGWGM
UniProt O95793: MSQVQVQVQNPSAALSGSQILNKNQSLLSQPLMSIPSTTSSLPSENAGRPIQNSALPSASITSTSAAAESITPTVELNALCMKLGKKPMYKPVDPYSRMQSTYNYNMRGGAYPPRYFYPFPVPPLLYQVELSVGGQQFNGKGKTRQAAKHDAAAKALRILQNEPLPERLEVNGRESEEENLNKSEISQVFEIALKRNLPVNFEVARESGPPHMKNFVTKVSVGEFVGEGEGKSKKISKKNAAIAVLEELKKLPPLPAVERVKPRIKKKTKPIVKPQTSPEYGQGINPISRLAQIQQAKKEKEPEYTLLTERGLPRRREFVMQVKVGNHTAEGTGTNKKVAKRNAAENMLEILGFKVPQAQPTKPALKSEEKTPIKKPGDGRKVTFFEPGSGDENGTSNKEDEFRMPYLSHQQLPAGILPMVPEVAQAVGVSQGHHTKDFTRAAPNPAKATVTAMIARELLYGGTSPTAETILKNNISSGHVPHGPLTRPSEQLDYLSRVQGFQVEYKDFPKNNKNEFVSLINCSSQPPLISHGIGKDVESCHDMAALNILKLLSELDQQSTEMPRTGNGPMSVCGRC
UniProt O14929: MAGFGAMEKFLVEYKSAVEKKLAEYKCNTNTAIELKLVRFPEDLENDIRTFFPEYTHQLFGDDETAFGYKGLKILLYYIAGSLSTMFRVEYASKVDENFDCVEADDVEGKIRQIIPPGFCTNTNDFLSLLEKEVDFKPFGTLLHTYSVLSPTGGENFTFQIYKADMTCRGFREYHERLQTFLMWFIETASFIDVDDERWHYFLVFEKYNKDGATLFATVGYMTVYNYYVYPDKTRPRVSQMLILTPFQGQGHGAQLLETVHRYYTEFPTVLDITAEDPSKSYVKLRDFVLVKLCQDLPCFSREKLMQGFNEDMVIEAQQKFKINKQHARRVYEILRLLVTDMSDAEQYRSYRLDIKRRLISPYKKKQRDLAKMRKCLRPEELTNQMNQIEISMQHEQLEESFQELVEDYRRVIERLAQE
UniProt P03146: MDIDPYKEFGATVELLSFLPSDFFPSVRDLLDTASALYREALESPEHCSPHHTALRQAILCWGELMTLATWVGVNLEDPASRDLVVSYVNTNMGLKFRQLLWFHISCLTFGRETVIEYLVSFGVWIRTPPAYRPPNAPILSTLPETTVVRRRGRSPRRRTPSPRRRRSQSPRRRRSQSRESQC
UniProt P25786: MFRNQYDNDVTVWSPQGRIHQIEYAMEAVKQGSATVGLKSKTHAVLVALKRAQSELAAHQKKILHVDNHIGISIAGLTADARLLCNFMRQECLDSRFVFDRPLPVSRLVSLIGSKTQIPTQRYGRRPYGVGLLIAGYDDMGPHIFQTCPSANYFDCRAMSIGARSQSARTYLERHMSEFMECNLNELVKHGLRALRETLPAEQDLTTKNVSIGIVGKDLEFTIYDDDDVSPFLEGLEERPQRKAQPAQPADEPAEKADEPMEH
UniProt P25788: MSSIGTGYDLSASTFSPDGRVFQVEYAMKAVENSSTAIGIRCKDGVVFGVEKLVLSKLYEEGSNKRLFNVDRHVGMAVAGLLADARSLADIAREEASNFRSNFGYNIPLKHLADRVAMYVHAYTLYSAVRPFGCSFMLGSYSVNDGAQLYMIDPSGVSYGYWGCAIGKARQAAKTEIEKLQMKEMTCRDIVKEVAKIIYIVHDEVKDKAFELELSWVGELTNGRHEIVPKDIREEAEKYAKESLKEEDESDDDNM
UniProt O14818: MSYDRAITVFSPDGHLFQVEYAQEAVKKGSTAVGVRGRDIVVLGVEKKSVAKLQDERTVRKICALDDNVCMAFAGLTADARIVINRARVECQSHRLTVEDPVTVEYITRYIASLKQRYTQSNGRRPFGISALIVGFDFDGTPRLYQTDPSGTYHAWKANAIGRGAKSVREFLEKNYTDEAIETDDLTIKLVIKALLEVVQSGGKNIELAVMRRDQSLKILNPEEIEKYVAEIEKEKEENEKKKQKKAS
UniProt Q12962: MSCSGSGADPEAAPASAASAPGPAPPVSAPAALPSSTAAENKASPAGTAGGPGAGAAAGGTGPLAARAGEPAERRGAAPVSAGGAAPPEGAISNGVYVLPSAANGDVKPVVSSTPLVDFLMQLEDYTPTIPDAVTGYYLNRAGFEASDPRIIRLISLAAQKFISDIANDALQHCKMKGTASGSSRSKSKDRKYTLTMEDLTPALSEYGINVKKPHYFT

These are yes or no findings as the source states them, for the method shown. For some assays here: In cells and extracts the contact can be indirect. Some binding calls cover weakened binding; strength is not graded here.

Turning to 3Flag-STAU1 (from UniProt O95793 1-577), the binding result (in assay [1]; in the assay with 3HA-TARDBP) was “binds” each time.

In the case of 3HA-HBx (from UniProt P03165 1-154), in the assay with 3Flag-STAU1, the binding entry is given as “binds”.

On to “3HA-HBx with residues 1-30 deleted (from UniProt P03165 31-154) (domain or fragment)”, for which the binding entry with 3Flag-STAU1 is recorded as “binds”.

Take “3HA-HBx with residues 121-154 deleted (from UniProt P03165 1-120) (domain or fragment)”: the binding result with 3Flag-STAU1 is “no binding”.

With “HAT1 (as used in the co-IP with STAU1) (from UniProt O14929 1-419)”, in the assay with 3Flag-STAU1, the binding entry is recorded as “binds”.

With N8-HBc (from UniProt P03146 1-183), the binding entry in the assay with C10-STAU1 is given as “no binding”.

On to “N8-HBx with residues 1-30 deleted (from UniProt P03165 31-154) (domain or fragment)”, for which the binding entry in the assay with C10-STAU1 was “binds”.

In the case of “N8-HBx with residues 121-154 deleted (from UniProt P03165 1-120) (domain or fragment)”, in the assay with C10-STAU1, the binding result is on record as “no binding”.

Turning to “PSMA1 (20S proteasome subunit) (from UniProt P25786 1-263)”, the binding entry in assay [2] is recorded as “binds”.

Consider “PSMA3 (20S proteasome subunit) (from UniProt P25788 1-255)”, for which the binding result in assay [2] is given as “binds”.

“PSMA7 (20S proteasome subunit) (from UniProt O14818 1-248)”: the binding result in assay [2] was “binds”.

Consider “STAU1 recombinant protein (from UniProt O95793 1-577)”, for which the binding result in assay [3] was “binds”.

With “TAF10 (as used in the co-IP with STAU1) (from UniProt Q12962 1-218)”, in the assay with 3Flag-STAU1, the binding entry is given as “binds”.

For the origin of these results see paper PMC9156947.
